# Reference: the supplement of paper PMC3682954
# “And” between values parts separate entries of the source, which are not always exact repeats. Identical values can stand only once. Counter-ions that a name gives are not always drawn. ± gives the standard deviation of the averaged measurements. This is one part of the list. Many values rest on one well or one pass, so single values are uncertain.
# System: RAW 264.7
# Test: HMGB1-induced TNF-alpha production relative to HMGB1-stimulated control; higher = more TNF-alpha secretion (less inhibition)
# Conditions: stimulus: HMGB1 5 ug/ml, 18 h
# [1] = compound concentration: 1 ug/ml
Compound,HMGB1-induced TNF-alpha production (compound concentration: 3 uM),HMGB1-induced TNF-alpha production [1] [%]
COc1ccccc1OCC(O)CO (centres undefined),84.6%,
COc1ccccc1OCC(O)CO (centres undefined) [Guaifenesin],102 ± 9.6%,
Cc1cc(O)cc(O)c1 [Orcinol],,76.7
COc1ccc2c(CN(C)CCC#N)cc(=O)oc2c1,,65.1
Cc1cc(=O)[nH]c(=S)[nH]1,99%,
CC(=O)[C@H]1CC[C@H]2[C@@H]3C=CC4=CC(=O)CC[C@@]4(C)[C@@H]3CC[C@]12C [Dydrogesterone],97.6%,
COc1ccccc1N1CCN(CCCCN2C(=O)c3ccccc3C2=O)CC1 [NAN-190 hydrobromide],105%,
CN1[C@@H]2CC[C@H]1C[C@@H](OC(=O)c1c[nH]c3ccccc13)C2 [Tropisetron],72.1%,
CN1[C@@H]2CC[C@H]1C[C@@H](OC(=O)c1c[nH]c3ccccc13)C2,46.4%,
CN1[C@@H]2CC[C@H]1C[C@@H](OC(=O)c1c[nH]c3ccccc13)C2 [Tropisetron HCl],73%,
Cc1cccc(C)c1OCC(C)N (centres undefined) [Mexiletine hydrochloride],74%,
Cc1cccc(C)c1OCC(C)N (centres undefined) [Mexiletene hydrochloride],103%,
Cc1cccc(C)c1OCC(C)N (centres undefined),89.4%,
COc1ccc(/C=C/C(=O)Nc2ccccc2C(=O)O)cc1OC,96.7 ± 10%,
COc1ccc(/C=C/C(=O)Nc2ccccc2C(=O)O)cc1OC [Tranilast],102 ± 8.8%,
"CO[C@H]1O[C@@H]2COC(c3ccccc3)O[C@H]2[C@H](O)[C@H]1O (single isomer, unassigned; (+)) [(+)-(4,6-O-Benzylidene)methyl-alpha-D-glucopyranoside]",,63.1
CCOC(=O)C1=C(COCCN)NC(C)=C(C(=O)OC)C1c1ccccc1Cl (centres undefined) [Amlodipine],76.5 ± 14%,
CCOC(=O)C1=C(COCCN)NC(C)=C(C(=O)OC)C1c1ccccc1Cl (centres undefined),82.8% and 92.4%,
Oc1ccc(/C=C/c2cc(O)cc(O)c2)cc1 [Resveratrol],79 ± 29%,
Oc1ccc(/C=C/c2cc(O)cc(O)c2)cc1,118%,
Oc1c(Cl)cc(Cl)c(Cl)c1Cc1c(O)c(Cl)cc(Cl)c1Cl,119 ± 52%,
Oc1c(Cl)cc(Cl)c(Cl)c1Cc1c(O)c(Cl)cc(Cl)c1Cl [Hexachlorophene],139%,
Cc1c(N(C)C)c(=O)n(-c2ccccc2)n1C,80.7%,
Cc1c(N(C)C)c(=O)n(-c2ccccc2)n1C [Amidopyrine],86.5%,
"CCCc1c(-c2ccc(O)cc2)nn(-c2ccc(O)cc2)c1-c1ccc(O)cc1 [1,3,5-tris(4-hydroxyphenyl)-4-propyl-1H-pyrazole]",80.5%,
NC(=O)c1ccc2[nH]ccc2c1,87.4%,
CC(C(=O)O)c1ccc2c(c1)[nH]c1ccc(Cl)cc12 (centres undefined) [Carprofen],102%,

Compound,HMGB1-induced TNF-alpha production (compound concentration: 3 uM),HMGB1-induced TNF-alpha production [1] [%]
CC(C(=O)O)c1ccc2c(c1)[nH]c1ccc(Cl)cc12 (centres undefined),80.4%,
CCCCc1cc2ccccc2c(OCCN(C)C)n1 [Dimethisoquin hydrochloride],107%,
C=CCc1cccc(/C=N/NC(=O)CN2CCN(Cc3ccccc3)CC2)c1O,104%,
Cc1cccc(C)c1NC(=O)C(C)N (centres undefined),101%,
Cc1cccc(C)c1NC(=O)C(C)N (centres undefined) [Tocainide hydrochloride],91.5 ± 15%,
O=C1c2c(O)cccc2C([C@@H]2O[C@H](CO)[C@@H](O)[C@H](O)[C@H]2O)c2cc(CO)cc(O)c21 (some centres undefined),95.5%,
NC(=S)NCCC[C@H](N)C(=O)O [L-Thiocitrulline],,79.6
CC[N+](CC)(CC)CCOc1ccc(/C=C/c2ccccc2)cc1,113%,
Nc1nc2[nH]cnc2c(=S)[nH]1,112 ± 6.3%,
C/C1=C2/[N-][C@H]([C@H](CC(N)=O)[C@@]2(C)CCC(=O)NC[C@@H](C)OP(=O)([O-])O[C@H]2[C@@H](O)[C@@H](n3cnc4cc(C)c(C)cc43)O[C@@H]2CO)[C@]2(C)N=C(/C(C)=C3N=C(/C=C4N=C1[C@@H](CCC(N)=O)C\4(C)C)[C@@H](CCC(N)=O)[C@]\3(C)CC(N)=O)[C@@H](CCC(N)=O)[C@]2(C)CC(N)=O.[CH2-][C@H]1O[C@H](n2cnc3c(N)ncnc32)[C@@H](O)[C@H]1O.[Co+3],68.5%,
COc1cc(C[C@@H](CO)[C@H](CO)Cc2ccc(O)c(OC)c2)ccc1O,97%,
CN(C)C(=O)C(CCN1CCC(O)(c2ccc(Cl)cc2)CC1)(c1ccccc1)c1ccccc1 [Loperamide],72.9%,
CN(C)C(=O)C(CCN1CCC(O)(c2ccc(Cl)cc2)CC1)(c1ccccc1)c1ccccc1 [Loperamide hydrochloride],76 ± 21%,
CN(C)C(=O)C(CCN1CCC(O)(c2ccc(Cl)cc2)CC1)(c1ccccc1)c1ccccc1,67.5%,
O=c1ccc2cc(O)c(O)cc2o1 [Esculetin],,81.4
O=c1c(O)c(-c2cccc(O)c2)oc2ccccc12,,78.8
C[C@H](CCC(=O)O)[C@H]1CC[C@H]2[C@@H]3[C@H](O)C[C@@H]4C[C@H](O)CC[C@]4(C)[C@H]3C[C@H](O)[C@]12C [Cholic acid],,78.1
O=C(OCC(O)CO)c1ccccc1Nc1ccnc2cc(Cl)ccc12 (centres undefined),77.7%,
O=C(OCC(O)CO)c1ccccc1Nc1ccnc2cc(Cl)ccc12 (centres undefined) [Glafenine hydrochloride],60.2%,
CC(C(=O)O)c1ccc(-c2ccccc2)c(F)c1 (centres undefined),76.1% and 72.7%,
CC(C(=O)O)c1ccc(-c2ccccc2)c(F)c1 (centres undefined) [Flurbiprofen],105 ± 9.9%,
Cc1cc(O)c2c(c1)C(=O)c1cccc(O)c1C2=O [Chrysophanic acid],,65.3
NC(=O)c1cn(Cc2c(F)cccc2F)nn1 [Rufinamide],93.9%,
NC(N)=NC(N)=Nc1cccc(Cl)c1 [1-(m-Chlorophenyl)-biguanide hydrochloride],79.6%,
C[C@H]1O[C@@H](O[C@H]2[C@@H](O)C[C@H](O[C@H]3[C@@H](O)C[C@H](O[C@H]4CC[C@@]5(C)[C@H](CC[C@@H]6[C@@H]5C[C@@H](O)[C@]5(C)[C@@H](C7=CC(=O)OC7)CC[C@]65O)C4)O[C@@H]3C)O[C@@H]2C)C[C@H](O)[C@@H]1O [Digoxin],84.1%,77.3
C[C@H]1O[C@@H](O[C@H]2[C@@H](O)C[C@H](O[C@H]3[C@@H](O)C[C@H](O[C@H]4CC[C@@]5(C)[C@H](CC[C@@H]6[C@@H]5C[C@@H](O)[C@]5(C)[C@@H](C7=CC(=O)OC7)CC[C@]65O)C4)O[C@@H]3C)O[C@@H]2C)C[C@H](O)[C@@H]1O,78.2%,
